{"source": "PubChem BioAssay AID1053208 (Peter MacCallum Cancer Centre, 2014)", "test": "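Find knock-downs that sensitise mouse osteosarcoma cells to doxorubicin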 (primary screen)", "system": "mouse osteosarcoma cells, early-passage culture from an engineered mouse model of fibroblastic bone tumour", "knock-down reagent": "siRNA pool against mouse genes, 40 nM", "timing": "about 120 h (48 h before drug, then 72 h with drug)", "conditions": "doxorubicin 100 nM for 72 h, roughly 30-40% inhibitory dose", "detection": "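Viability read as ATP luminescence after 72 h of 100 nM doxorubicin or none, duplicate wells averaged, scaled to non-targeting siRNA, then expressed as robust z-scores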", "direction": "viability z-score with doxorubicin: higher = more viable cells under doxorubicin; viability z-score without drug: higher = more viable cells with knock-down alone", "rule for the call": "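Called active if knock-down leaves viability unchanged without drug (z within -2 to 2) but lowers it with doxorubicin (z at or under -2)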", "note": "This is an unselected part of about 17,000 deposited reagents. 788 of them (4.7%) were called active. 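Calls rest on z-score classes alone; an extra cut-off of viability at most 70% of control was not applied to them.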 Entries without a mark were called inactive. Further read-outs or replicates are left out here."}
{"Target gene": "Eppk1 (epiplakin 1)", "combined z-score class": "no change with or without drug", "viability z-score with doxorubicin": 0.22, "viability z-score without drug": 0.17}
{"Target gene": "Zdhhc12 (zinc finger, DHHC domain containing 12)", "combined z-score class": "no change with or without drug", "viability z-score with doxorubicin": 1.46, "viability z-score without drug": 0.34}
{"Target gene": "Mtpap (mitochondrial poly(A) polymerase)", "combined z-score class": "no change with or without drug", "viability z-score with doxorubicin": -0.11, "viability z-score without drug": 0.67}
{"Target gene": "Chrm3 (cholinergic receptor, muscarinic 3, cardiac)", "combined z-score class": "no change with or without drug", "viability z-score with doxorubicin": 0, "viability z-score without drug": 1.52}
{"Target gene": "1700012A03Rik (RIKEN cDNA 1700012A03 gene)", "combined z-score class": "high cell count without drug only", "viability z-score with doxorubicin": -0.22, "viability z-score without drug": 2.02}
{"Target gene": "Card19 (caspase recruitment domain family, member 19)", "combined z-score class": "no change with or without drug", "viability z-score with doxorubicin": -1.12, "viability z-score without drug": 1.69}
{"Target gene": "Ablim2 (actin-binding LIM protein 2)", "combined z-score class": "no change with or without drug", "viability z-score with doxorubicin": -0.22, "viability z-score without drug": -0.17}
{"Target gene": "Fam3a (FAM3 metabolism regulating signaling molecule A)", "combined z-score class": "no change with or without drug", "viability z-score with doxorubicin": -0.45, "viability z-score without drug": 1.01}
{"Target gene": "Ap5s1 (adaptor-related protein 5 complex, sigma 1 subunit)", "combined z-score class": "no change with or without drug", "viability z-score with doxorubicin": 0.67, "viability z-score without drug": 0.51}
{"Target gene": "Qrich1 (glutamine-rich 1)", "combined z-score class": "no change with or without drug", "viability z-score with doxorubicin": -0.22, "viability z-score without drug": 1.85}
{"Target gene": "Snx24 (sorting nexing 24)", "combined z-score class": "no change with or without drug", "viability z-score with doxorubicin": 0.56, "viability z-score without drug": 0.67}
{"Target gene": "2010106E10Rik (RIKEN cDNA 2010106E10 gene)", "combined z-score class": "no change with or without drug", "viability z-score with doxorubicin": -0.22, "viability z-score without drug": 0.34}
{"Target gene": "Wfdc1 (WAP four-disulfide core domain 1)", "combined z-score class": "no change with or without drug", "viability z-score with doxorubicin": -0.45, "viability z-score without drug": 0.17}
{"Target gene": "Sav1 (salvador family WW domain containing 1)", "combined z-score class": "no change with or without drug", "viability z-score with doxorubicin": 1.12, "viability z-score without drug": -0.51}
{"Target gene": "Zfp709 (zinc finger protein 709)", "combined z-score class": "no change with or without drug", "viability z-score with doxorubicin": 1.01, "viability z-score without drug": 0.17}
{"Target gene": "Ctif (CBP80/20-dependent translation initiation factor)", "combined z-score class": "no change with or without drug", "viability z-score with doxorubicin": 0.34, "viability z-score without drug": -0.84}
{"Target gene": "Ikzf1 (IKAROS family zinc finger 1)", "combined z-score class": "high cell count without drug only", "viability z-score with doxorubicin": 1.12, "viability z-score without drug": 2.53}
{"Target gene": "Scyl2 (SCY1-like 2 (S. cerevisiae))", "combined z-score class": "no change with or without drug", "viability z-score with doxorubicin": 0, "viability z-score without drug": -0.51}
{"Target gene": "Actg1 (actin, gamma, cytoplasmic 1)", "combined z-score class": "no change with or without drug", "viability z-score with doxorubicin": -0.79, "viability z-score without drug": -1.85}

5 successive reagents from above, quoted:
{"Target gene": "Eppk1 (epiplakin 1)", "combined z-score class": "no change with or without drug", "viability z-score with doxorubicin": 0.22, "viability z-score without drug": 0.17}
{"Target gene": "Zdhhc12 (zinc finger, DHHC domain containing 12)", "combined z-score class": "no change with or without drug", "viability z-score with doxorubicin": 1.46, "viability z-score without drug": 0.34}
{"Target gene": "Mtpap (mitochondrial poly(A) polymerase)", "combined z-score class": "no change with or without drug", "viability z-score with doxorubicin": -0.11, "viability z-score without drug": 0.67}
{"Target gene": "Chrm3 (cholinergic receptor, muscarinic 3, cardiac)", "combined z-score class": "no change with or without drug", "viability z-score with doxorubicin": 0, "viability z-score without drug": 1.52}
{"Target gene": "1700012A03Rik (RIKEN cDNA 1700012A03 gene)", "combined z-score class": "high cell count without drug only", "viability z-score with doxorubicin": -0.22, "viability z-score without drug": 2.02}

The results go on.
{"Target gene": "Ero1b (endoplasmic reticulum oxidoreductase 1 beta)", "combined z-score class": "no change with or without drug", "viability z-score with doxorubicin": -1.12, "viability z-score without drug": 1.85}
{"Target gene": "Vmp1 (vacuole membrane protein 1)", "combined z-score class": "low cell count without drug only", "viability z-score with doxorubicin": 0.22, "viability z-score without drug": -2.87}
{"Target gene": "Slc9c1", "combined z-score class": "no change with or without drug", "viability z-score with doxorubicin": 1.12, "viability z-score without drug": -0.51}
{"Target gene": "Etv1 (ets variant 1)", "combined z-score class": "no change with or without drug", "viability z-score with doxorubicin": 0.34, "viability z-score without drug": 0.67}
{"Target gene": "Lasp1 (LIM and SH3 protein 1)", "combined z-score class": "no change with or without drug", "viability z-score with doxorubicin": 0.22, "viability z-score without drug": -1.18}
{"Target gene": "Lingo2 (leucine rich repeat and Ig domain containing 2)", "combined z-score class": "no change with or without drug", "viability z-score with doxorubicin": -0.22, "viability z-score without drug": 0.51}
{"Target gene": "Clgn (calmegin)", "combined z-score class": "no change with or without drug", "viability z-score with doxorubicin": 0.67, "viability z-score without drug": -0.34}
{"Target gene": "Bnc1 (basonuclin zinc finger protein 1)", "combined z-score class": "low cell count with doxorubicin only (active)", "viability z-score with doxorubicin": -2.59, "viability z-score without drug": -0.51}
{"Target gene": "Mael (maelstrom spermatogenic transposon silencer)", "combined z-score class": "no change with or without drug", "viability z-score with doxorubicin": 1.12, "viability z-score without drug": 0.84}
{"Target gene": "Pnlip (pancreatic lipase)", "combined z-score class": "no change with or without drug", "viability z-score with doxorubicin": 0.22, "viability z-score without drug": -0.17}
{"Target gene": "Rnf103 (ring finger protein 103)", "combined z-score class": "no change with or without drug", "viability z-score with doxorubicin": 0.45, "viability z-score without drug": 0.51}
{"Target gene": "Cadm3 (cell adhesion molecule 3)", "combined z-score class": "no change with or without drug", "viability z-score with doxorubicin": 0.22, "viability z-score without drug": 0.67}
{"Target gene": "1700010H22Rik (RIKEN cDNA 1700010H22 gene)", "combined z-score class": "low cell count with and without drug", "viability z-score with doxorubicin": -2.02, "viability z-score without drug": -2.02}
{"Target gene": "Cd200r1l (CD200 receptor 1 like)", "combined z-score class": "no change with or without drug", "viability z-score with doxorubicin": 0.67, "viability z-score without drug": -1.85}
{"Target gene": "Zfp112 (zinc finger protein 112)", "combined z-score class": "no change with or without drug", "viability z-score with doxorubicin": 1.12, "viability z-score without drug": 0.51}
{"Target gene": "Gjd2 (gap junction protein, delta 2)", "combined z-score class": "high cell count without drug only", "viability z-score with doxorubicin": 1.57, "viability z-score without drug": 3.37}
{"Target gene": "Dctn3 (dynactin 3)", "combined z-score class": "no change with or without drug", "viability z-score with doxorubicin": 1.24, "viability z-score without drug": 0.17}
